Experimental data published in publication PMC4632068.
These are yes or no findings as the source states them, for the method shown. In cells and extracts the contact can be indirect. A yes stands for co-enrichment or nearness to the bait. Other partners may have been found. Where a sequence is shown, tags or fusion partners need not be part of it.

T1: Dhh1−GFP (S. cerevisiae (endogenous in BY4741-derived yeast)) (UniProt P39517)
T1 sequence: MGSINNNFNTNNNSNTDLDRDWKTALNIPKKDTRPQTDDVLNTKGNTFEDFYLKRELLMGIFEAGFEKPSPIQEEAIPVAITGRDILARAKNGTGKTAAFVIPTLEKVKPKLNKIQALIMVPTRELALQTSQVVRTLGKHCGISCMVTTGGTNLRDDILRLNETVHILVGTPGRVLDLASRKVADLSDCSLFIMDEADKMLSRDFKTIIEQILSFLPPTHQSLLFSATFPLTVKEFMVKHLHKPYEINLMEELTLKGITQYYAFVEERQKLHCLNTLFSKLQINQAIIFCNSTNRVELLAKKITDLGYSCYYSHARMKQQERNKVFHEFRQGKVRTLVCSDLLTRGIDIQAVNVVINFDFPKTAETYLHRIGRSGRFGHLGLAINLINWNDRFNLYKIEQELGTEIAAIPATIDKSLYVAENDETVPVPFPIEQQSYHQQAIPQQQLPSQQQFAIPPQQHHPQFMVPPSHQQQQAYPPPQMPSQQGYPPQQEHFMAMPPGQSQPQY


Target: T1, Dhh1−GFP (S. cerevisiae (endogenous in BY4741-derived yeast))
Test: affinity purification with mass spectrometry; Dhh1−GFP captured by anti-GFP IgG cross-linked to Protein-G Dynabeads from cleared lysate of cryo-ground yeast; RB buffer (30 mM K-Hepes pH 7.4, 150 mM KCl, 2 mM MgCl2, 0.2% NP-40, 0.1% Tween-20, 1 mM DTT, RNase inhibitor), 30 min at 4°; five purifications (two +glucose YPD, three 30 min −glucose YEP); hits filtered by SAINT against CRAPome controls

Binder | binding
Puf3 (protein, UniProt Q07807 1-879) MEMNMDMDMDMELASIVSSLSALSHSNNNGGQAAAAGIVNGGAAGSQQIGGFRRSSFTTANEVDSEILLLHGSSESSPIFKKTALSVGTAPPFSTNSKKFFGNGGNYYQYRSTDTASLSSASYNNYHTHHTAANLGKNNKVNHLLGQYSASIAGPVYYNGNDNNNSGGEGFFEKFGKSLIDGTRELESQDRPDAVNTQSQFISKSVSNASLDTQNTFEQNVESDKNFNKLNRNTTNSGSLYHSSSNSGSSASLESENAHYPKRNIWNVANTPVFRPSNNPAAVGATNVALPNQQDGPANNNFPPYMNGFPPNQFHQGPHYQNFPNYLIGSPSNFISQMISVQIPANEDTEDSNGKKKKKANRPSSVSSPSSPPNNSPFPFAYPNPMMFMPPPPLSAPQQQQQQQQQQQQEDQQQQQQQENPYIYYPTPNPIPVKMPKDEKTFKKRNNKNHPANNSNNANKQANPYLENSIPTKNTSKKNASSKSNESTANNHKSHSHSHPHSQSLQQQQQTYHRSPLLEQLRNSSSDKNSNSNMSLKDIFGHSLEFCKDQHGSRFIQRELATSPASEKEVIFNEIRDDAIELSNDVFGNYVIQKFFEFGSKIQKNTLVDQFKGNMKQLSLQMYACRVIQKALEYIDSNQRIELVLELSDSVLQMIKDQNGNHVIQKAIETIPIEKLPFILSSLTGHIYHLSTHSYGCRVIQRLLEFGSSEDQESILNELKDFIPYLIQDQYGNYVIQYVLQQDQFTNKEMVDIKQEIIETVANNVVEYSKHKFASNVVEKSILYGSKNQKDLIISKILPRDKNHALNLEDDSPMILMIKDQFANYVIQKLVNVSEGEGKKLIVIAIRAYLDKLNKSNSLGNRHLASVEKLAALVENAEV | binds
Nab6 (protein, UniProt Q03735 1-1134) MSNSNSKKPVANYAYRQQQDYNGMNAMVGNPMMYHPVDFVNGAGQYGPSQHPAYYTNSPLPNIPPTPFDTAYGASLFPSHLLMGSPFVSSPNMQSGYNSARSSNLKRKAYSRPVSNHNGYNGNSNSNQNNTNNGMVTPSNYYRMGRNSFSRNNNSTRNVTHNNNKGCDTRNNSGRRTFARNNIFDDILPEMLLQRPFCINYKVLPTGDDAYRTRSLLIENVDHSIDLHSIVKNFVKSNTLESAYLIEGGKSDDSKDVETKNLSILISFLTKGDCLNFYNNILQRLSEFKTFLKSEALNLKFVCLNYDPKCLPTFIESEALTENAEEADITNGSTMISASLHHNIANKDATRSIIIEFKSPVEKSDLFKKKLQFLDRSKNKRYILESIDLVNTDVPSNQFPENYAVLTFLNISMAIEVLDYLKKYSKNLGISKCFYVSLAPLVVSSARSSVANIYEGKTSTHRLSVPSVTAGNNNDSNNNGNNNKSNMSGITTLNNNSSIGVSVYGHSNMSLTSLSSSVSLNEEIDMLATKLQGVELDGTYLEINYRDYQTPTIEEHSTHLSNVKISKTTENSRQFSQDIPSPLPLNEHMFMNDSNQSNGAIIPQQLIATPSPVSPNLQMNQRVLPNPITQSLEQNFNVSAKVASSMGSDIGNRTIYIGNINPRSKAEDICNVVRGGILQSIKYIPEKKICFVTFIEAPSAVQFYANSFIDPIVLHGNMLRVGWGHYSGPLPKLISLAVTIGASRNVYVSLPEFAFKEKFIHDPQYKKLHETLSLPDAEQLREDFSTYGDIEQINYLSDSHCCWINFMNISSAISLVEEMNKESTVQNESGEVTLKRATEEKFGGRYKGLLINYGKDRCGNINKNLIAGKNSRFYKKVKRPSYNIRLSKLEEKRRQNEIDEKEKAFDKPLNLESLGISLDAHKDNGGGETGTANNTGHENESELEAENENGNETGSFGGLGLAVASSDVKRATSDETDYEDIFNKSSGSSDSSSDVEVIMHSPSDPEYALKSQTLRSSSQTVINSKRPVKIEDEEEAVGMSQLNYRSSLRQAPPRAPSTLSYNHSKNNETPMQDIFTNGETANNRKKKRGSFARHRTIPGSDVMAQYLAQVQHSTFMYAANILGASAEDNTHPDE | binds
Pbp4 (protein, UniProt Q07362 1-185) MTTTSTTSVDGRTSSTLKATLSASGPNSNGPTPAVLPQKPKLTGWAQAAAKALPRQQQQQQQARKDDSVAVQPANTKTKTIASTAPPANIKGSSTANGSSTNKKFKRANKQPYNREEVRSYMHKLFQSYTAGEKSHSMKTYKQVLSETASGRVSTATDWGTVSSSKNKNKKYGCLSDIAKVLRNQ | binds
Nam7 (protein, UniProt P30771 1-971) MVGSGSHTPYDISNSPSDVNVQPATQLNSTLVEDDDVDNQLFEEAQVTETGFRSPSASDNSCAYCGIDSAKCVIKCNSCKKWFCNTKNGTSSSHIVNHLVLSHHNVVSLHPDSDLGDTVLECYNCGRKNVFLLGFVSAKSEAVVVLLCRIPCAQTKNANWDTDQWQPLIEDRQLLSWVAEQPTEEEKLKARLITPSQISKLEAKWRSNKDATINDIDAPEEQEAIPPLLLRYQDAYEYQRSYGPLIKLEADYDKQLKESQALEHISVSWSLALNNRHLASFTLSTFESNELKVAIGDEMILWYSGMQHPDWEGRGYIVRLPNSFQDTFTLELKPSKTPPPTHLTTGFTAEFIWKGTSYDRMQDALKKFAIDKKSISGYLYYKILGHQVVDISFDVPLPKEFSIPNFAQLNSSQSNAVSHVLQRPLSLIQGPPGTGKTVTSATIVYHLSKIHKDRILVCAPSNVAVDHLAAKLRDLGLKVVRLTAKSREDVESSVSNLALHNLVGRGAKGELKNLLKLKDEVGELSASDTKRFVKLVRKTEAEILNKADVVCCTCVGAGDKRLDTKFRTVLIDESTQASEPECLIPIVKGAKQVILVGDHQQLGPVILERKAADAGLKQSLFERLISLGHVPIRLEVQYRMNPYLSEFPSNMFYEGSLQNGVTIEQRTVPNSKFPWPIRGIPMMFWANYGREEISANGTSFLNRIEAMNCERIITKLFRDGVKPEQIGVITPYEGQRAYILQYMQMNGSLDKDLYIKVEVASVDAFQGREKDYIILSCVRANEQQAIGFLRDPRRLNVGLTRAKYGLVILGNPRSLARNTLWNHLLIHFREKGCLVEGTLDNLQLCTVQLVRPQPRKTERPMNAQFNVESEMGDFPKFQDFDAQSMVSFSGQIGDFGNAFVDNTELSSYINNEYWNFENFKSAFSQKQNRNEIDDRNLYQEEASHLNSNFARELQREEQKHELSKDFSNLGI | binds
Rpm2 (protein, UniProt Q02773 123-1202) STGPTLPTNQYDPLNFSNRNFQDLSLKTSQPSVQQPQNEYSLLKDENAPVWKEDTEPCLNKSTYLQTHIDEINRCYEQKNYNKINSLYQSLKRNDIVPPLEIFTKVLDSLCKRPLDNNDLDNKMYELLTCYQDMINNRLKPPDEIYNIVLLSLFKGSILAYQFENPNGSDFYKIAIELFNTTTNDPKQKSVVKFRNFSKDVLDYNLLAMNIYPGHITLSKAQQVIKSSPAFIKDSFYFIACFSYAKLTNDKFAIKELYEDFRLSLSSGSPDQGLFDDQFEIYSVILSSFIETGEVELATNLLDDLVSKIQSSNGLASNISLLLSSFLISMSKVDPSKAYEIWFKFHNLNWIPEFSYEFYLVFMANSFQDWNLTKKIYDYIFPMERNLSPLKKQKLSDYLLHPIGVDSITTSLLDYSLQLKDNEVIMKILEESIVKNFSFDIGIYPFVFNYLREIQCGEDYLMRFIESHAEFIKKSNSINKFQFLNMIVDNFQSQSLLNKISHAKFFKNFVEDFNLENCELVSYNGLISCINNFIKIPKTIKDFPYILEIHAILVTKLFDFDTYPILQNGNNEVLLKFRDQIEHQFKMLAQNFCRLNLDPNLLAGVVSQAMKMVNLDDTANGQDLLNFFNHPGDWDKSYPLSLGSFIRNSPRGGIREFTKLSKEGYCFDYDTYKELIIKRAINKQIIDKCLEVCPDSIELKNIVNLMISKIPGRNLTQLIINNPKFSKVFVPNLRNDSMLKLIENCESLSNFIRICDFPEKFKSIAIQAENKNAIELIYERLFDGGKYADILRYNNIVPVLNLELLLKSCIRSGEFKKYESLSKKFNDKISESSKIDIQLEYLINKNDLKGAFTLFEKTPRELRTPHKTMDLYTFALFLDSFNRNITYYESPENTLQFANILSSQTSFINLLSTYNLIAHSDHLMNFNVGGMAAKVKKEILNQMLNNLYDSIRLLSPSIENDKSMKEKLREKVKNYCRFKAYLKSPELDMDELKTLVSVESFLNPFTPSMLFNNLIETIYINEHASSLVLQNGLIYSLQQKGLNKILSYLEESFITSGNDANIEKVREFRSLLRKSKPLQA | binds
Lsm12 (protein, UniProt P38828 1-187) MSVSLEQTLGFRIKVTNVLDVVTEGRLYSFNSSNNTLTIQTTKKNQSPQNFKVIKCTFIKHLEVIGDKPSFNSFKKQQIKPSYVNVERVEKLLKESVIASKKKELLRGKGVSAEGQFIFDQIFKTIGDTKWVAKDIIILDDVKVQPPYKVEDIKVLHEGSNQSITLIQRIVERSWEQLEQDDGRKGG | binds

Other lines, results leading:

binding | Binder
binds | Sro9 (protein, UniProt P25567 1-434) MSAETAAANTATAPVPEVQEQESSKSKQVNLTPAPLPTSSPWKLAPTEIPVSTISIEDLDATRKKKNRTPTPKSSTATKWVPIKASITVSGTKRSGSKNGASNGNSNKSKNNKTAASSTSSSNANRKKKHHQHNAKKQQQMKKDGFESAVGEEDSKDATSQENGQSTQQQQPPHHRNHHHSHHHNSNGPQRRKFHNSNNAGMPQNQGFPPQFKPYQGRNARNNNNNRSKYHNHFHHNQQHPQQPMVKLQQQFYPVQPVLMAINNIARQIEYYFSEENLTVDNYLRSKLSKDGFAPLSLISKFYRVVNMSFGGDTNLILAALREIVANEAATVNVAEGTLAAKEGDNVTGEAKEPSPLDKYFVRSKSWSNWLPETFETEINIEKELVGDALDQFMISLPPVPQQEEESSTELASQEQETKEDSAPVAAGESESSL
binds | Sbp1 (protein, UniProt P10080 1-294) MSAEIEEATNAVNNLSINDSEQQPRAPTHKTVIDPEDTIFIGNVAHECTEDDLKQLFVEEFGDEVSVEIPIKEHTDGHIPASKHALVKFPTKIDFDNIKENYDTKVVKDREIHIKRARTPGQMQRGGFRGRGGFRGRGGFRGGFRGGYRGGFRGRGNFRGRGGARGGFNGQKREKIPLDQMERSKDTLYINNVPFKATKEEVAEFFGTDADSISLPMRKMRDQHTGRIFTSDSANRGMAFVTFSGENVDIEAKAEEFKGKVFGDRELTVDVAVIRPENDEEEIEQETGSEEKQE
